According to the supplement of paper PMC7666118:
This is one part of the list.

Chains of the proteins cited; added tags and fusions are not shown. Lines headed by an entry give the natural chain unless they say otherwise; changes in a name come on top.
UniProt P11908: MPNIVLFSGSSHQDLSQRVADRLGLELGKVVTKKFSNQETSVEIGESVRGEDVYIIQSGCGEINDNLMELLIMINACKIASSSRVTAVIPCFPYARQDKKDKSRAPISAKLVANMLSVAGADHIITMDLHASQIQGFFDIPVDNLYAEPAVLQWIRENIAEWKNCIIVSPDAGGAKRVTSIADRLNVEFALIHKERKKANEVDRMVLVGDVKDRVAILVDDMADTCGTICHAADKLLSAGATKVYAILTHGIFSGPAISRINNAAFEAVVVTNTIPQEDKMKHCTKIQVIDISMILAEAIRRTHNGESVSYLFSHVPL
UniProt P61019: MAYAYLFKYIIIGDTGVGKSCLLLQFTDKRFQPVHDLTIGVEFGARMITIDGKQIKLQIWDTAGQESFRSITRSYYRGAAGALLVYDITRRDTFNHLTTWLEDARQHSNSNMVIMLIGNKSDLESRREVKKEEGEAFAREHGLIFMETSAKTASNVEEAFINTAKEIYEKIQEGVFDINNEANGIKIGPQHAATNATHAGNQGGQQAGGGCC
UniProt Q9NX57: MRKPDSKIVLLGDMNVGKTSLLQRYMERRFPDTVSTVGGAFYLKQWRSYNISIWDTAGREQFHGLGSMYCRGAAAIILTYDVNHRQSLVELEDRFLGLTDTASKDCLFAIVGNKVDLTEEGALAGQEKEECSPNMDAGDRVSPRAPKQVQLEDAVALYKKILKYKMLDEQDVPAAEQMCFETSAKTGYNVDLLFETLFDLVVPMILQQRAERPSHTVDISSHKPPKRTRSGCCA
UniProt Q9BXR0: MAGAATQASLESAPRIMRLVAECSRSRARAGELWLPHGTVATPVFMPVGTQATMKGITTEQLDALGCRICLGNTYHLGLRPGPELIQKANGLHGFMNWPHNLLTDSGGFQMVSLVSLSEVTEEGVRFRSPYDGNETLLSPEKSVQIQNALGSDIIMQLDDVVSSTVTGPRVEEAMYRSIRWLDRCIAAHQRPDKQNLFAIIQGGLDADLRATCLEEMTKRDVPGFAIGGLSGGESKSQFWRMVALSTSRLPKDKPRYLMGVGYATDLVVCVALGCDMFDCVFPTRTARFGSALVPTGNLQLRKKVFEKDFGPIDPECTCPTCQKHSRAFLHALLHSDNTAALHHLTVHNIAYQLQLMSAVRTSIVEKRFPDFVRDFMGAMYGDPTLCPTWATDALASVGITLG
UniProt O95456: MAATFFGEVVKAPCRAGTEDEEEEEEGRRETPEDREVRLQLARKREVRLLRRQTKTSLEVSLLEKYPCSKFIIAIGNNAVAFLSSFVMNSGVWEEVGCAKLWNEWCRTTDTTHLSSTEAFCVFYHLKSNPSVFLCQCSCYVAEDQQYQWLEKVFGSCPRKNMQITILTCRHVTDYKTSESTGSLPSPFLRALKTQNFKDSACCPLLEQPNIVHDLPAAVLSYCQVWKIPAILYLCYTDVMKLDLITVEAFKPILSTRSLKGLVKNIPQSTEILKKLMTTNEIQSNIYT
UniProt Q7Z6K3: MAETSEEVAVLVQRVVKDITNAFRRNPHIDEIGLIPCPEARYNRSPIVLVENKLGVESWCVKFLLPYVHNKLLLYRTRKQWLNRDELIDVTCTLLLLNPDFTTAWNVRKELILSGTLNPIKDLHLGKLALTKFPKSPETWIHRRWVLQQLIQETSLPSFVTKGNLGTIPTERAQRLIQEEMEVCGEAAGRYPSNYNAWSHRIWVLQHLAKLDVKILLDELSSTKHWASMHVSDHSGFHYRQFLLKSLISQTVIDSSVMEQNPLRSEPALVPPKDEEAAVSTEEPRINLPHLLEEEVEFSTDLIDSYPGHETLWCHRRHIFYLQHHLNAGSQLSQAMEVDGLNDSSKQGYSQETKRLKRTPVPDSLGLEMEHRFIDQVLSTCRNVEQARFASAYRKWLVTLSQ
UniProt Q8NAV1: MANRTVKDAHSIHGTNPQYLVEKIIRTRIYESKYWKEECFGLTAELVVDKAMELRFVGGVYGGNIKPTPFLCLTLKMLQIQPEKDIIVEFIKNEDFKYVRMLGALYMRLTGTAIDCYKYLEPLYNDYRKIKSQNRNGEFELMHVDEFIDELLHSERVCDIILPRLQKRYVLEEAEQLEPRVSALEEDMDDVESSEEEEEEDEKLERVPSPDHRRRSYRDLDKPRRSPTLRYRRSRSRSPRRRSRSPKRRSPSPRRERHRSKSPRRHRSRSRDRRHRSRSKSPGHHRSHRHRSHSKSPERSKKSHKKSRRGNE
UniProt Q14914: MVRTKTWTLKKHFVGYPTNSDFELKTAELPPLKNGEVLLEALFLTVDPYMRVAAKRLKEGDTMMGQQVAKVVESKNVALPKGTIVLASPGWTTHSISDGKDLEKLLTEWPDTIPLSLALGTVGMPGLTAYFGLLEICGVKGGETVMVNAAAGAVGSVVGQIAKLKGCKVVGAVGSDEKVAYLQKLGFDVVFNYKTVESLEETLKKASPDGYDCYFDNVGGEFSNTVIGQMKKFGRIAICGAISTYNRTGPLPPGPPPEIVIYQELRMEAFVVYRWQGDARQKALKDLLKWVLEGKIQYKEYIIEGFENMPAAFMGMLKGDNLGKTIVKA
UniProt O94906: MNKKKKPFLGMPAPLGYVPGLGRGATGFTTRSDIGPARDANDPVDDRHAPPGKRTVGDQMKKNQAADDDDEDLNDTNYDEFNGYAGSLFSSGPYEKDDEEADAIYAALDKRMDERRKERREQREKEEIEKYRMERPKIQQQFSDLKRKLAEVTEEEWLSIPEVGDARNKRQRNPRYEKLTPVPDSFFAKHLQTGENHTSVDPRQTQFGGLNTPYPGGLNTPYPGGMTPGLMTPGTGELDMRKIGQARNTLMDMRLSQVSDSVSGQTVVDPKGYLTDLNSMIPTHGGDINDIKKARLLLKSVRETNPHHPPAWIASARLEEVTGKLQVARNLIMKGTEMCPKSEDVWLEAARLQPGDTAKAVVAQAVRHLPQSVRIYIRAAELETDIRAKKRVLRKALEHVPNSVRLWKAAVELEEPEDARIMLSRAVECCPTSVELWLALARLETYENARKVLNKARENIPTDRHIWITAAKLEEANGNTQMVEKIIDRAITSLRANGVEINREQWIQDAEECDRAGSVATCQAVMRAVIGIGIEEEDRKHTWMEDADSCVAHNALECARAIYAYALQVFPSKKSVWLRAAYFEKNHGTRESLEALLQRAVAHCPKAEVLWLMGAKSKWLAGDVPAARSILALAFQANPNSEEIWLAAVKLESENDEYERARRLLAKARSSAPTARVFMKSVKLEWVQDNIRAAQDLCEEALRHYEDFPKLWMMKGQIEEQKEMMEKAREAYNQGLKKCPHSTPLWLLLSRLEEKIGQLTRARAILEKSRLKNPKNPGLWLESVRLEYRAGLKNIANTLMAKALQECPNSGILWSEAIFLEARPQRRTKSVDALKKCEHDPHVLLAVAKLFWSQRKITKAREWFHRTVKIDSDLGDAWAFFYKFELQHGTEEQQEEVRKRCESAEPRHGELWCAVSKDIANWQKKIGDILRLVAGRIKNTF
UniProt Q7Z6E9: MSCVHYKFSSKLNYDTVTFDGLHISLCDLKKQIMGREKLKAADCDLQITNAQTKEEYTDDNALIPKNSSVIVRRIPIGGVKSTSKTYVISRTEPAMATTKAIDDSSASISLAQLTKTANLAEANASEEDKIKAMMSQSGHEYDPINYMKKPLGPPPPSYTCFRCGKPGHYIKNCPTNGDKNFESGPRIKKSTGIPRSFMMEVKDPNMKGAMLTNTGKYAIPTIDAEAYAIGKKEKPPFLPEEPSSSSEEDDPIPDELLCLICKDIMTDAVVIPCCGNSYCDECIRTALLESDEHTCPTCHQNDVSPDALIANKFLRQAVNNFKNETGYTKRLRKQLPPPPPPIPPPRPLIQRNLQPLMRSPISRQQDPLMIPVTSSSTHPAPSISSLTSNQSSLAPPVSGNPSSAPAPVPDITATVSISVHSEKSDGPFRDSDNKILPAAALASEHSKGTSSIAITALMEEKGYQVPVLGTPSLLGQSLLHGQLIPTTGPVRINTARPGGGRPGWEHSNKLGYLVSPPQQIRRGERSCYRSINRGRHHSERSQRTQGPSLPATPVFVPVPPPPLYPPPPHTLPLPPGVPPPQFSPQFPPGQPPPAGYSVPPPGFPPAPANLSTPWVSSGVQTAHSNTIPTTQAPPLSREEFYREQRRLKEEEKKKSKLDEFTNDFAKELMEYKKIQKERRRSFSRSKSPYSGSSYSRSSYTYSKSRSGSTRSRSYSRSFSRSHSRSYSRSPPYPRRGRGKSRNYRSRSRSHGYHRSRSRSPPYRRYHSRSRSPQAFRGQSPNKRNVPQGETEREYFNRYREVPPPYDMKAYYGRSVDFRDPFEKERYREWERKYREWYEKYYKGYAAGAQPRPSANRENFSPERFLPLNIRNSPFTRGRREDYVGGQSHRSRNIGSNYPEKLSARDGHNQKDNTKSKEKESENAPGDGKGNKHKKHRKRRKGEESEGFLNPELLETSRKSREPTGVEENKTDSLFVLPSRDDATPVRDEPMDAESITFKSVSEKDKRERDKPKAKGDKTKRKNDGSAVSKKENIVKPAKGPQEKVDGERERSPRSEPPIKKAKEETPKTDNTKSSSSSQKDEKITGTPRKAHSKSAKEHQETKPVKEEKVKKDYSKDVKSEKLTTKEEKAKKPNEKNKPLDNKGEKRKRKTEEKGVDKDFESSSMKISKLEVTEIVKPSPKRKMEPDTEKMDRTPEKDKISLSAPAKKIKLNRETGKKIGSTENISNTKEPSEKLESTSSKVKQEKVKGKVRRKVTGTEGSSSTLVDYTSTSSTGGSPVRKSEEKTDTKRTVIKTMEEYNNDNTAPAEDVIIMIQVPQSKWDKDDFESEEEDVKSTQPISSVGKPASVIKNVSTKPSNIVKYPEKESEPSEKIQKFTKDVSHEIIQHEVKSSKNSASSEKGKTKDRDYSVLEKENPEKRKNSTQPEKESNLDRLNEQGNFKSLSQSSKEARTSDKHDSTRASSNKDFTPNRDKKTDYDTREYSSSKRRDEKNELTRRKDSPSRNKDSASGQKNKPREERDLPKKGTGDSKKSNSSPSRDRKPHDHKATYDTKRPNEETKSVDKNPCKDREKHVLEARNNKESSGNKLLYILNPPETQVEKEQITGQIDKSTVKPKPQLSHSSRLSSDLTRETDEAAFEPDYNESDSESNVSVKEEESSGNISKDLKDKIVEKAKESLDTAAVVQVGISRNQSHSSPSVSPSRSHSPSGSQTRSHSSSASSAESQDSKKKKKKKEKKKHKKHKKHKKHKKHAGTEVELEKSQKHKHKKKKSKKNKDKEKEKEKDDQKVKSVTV

Compound: COc1ccc(Cn2ccc3ccc(C(=O)NO)cc32)cc1
Test: dose-dependent thermal stabilisation call (2D-TPP, DLPTP, 10% FDR) (binary (1 = stabilised)); higher = stabilised by the compound
Settings: system: HL-60 intact cells; concentration range 0.04-10 µM

Target	dose-dependent thermal stabilisation call
PRPS2 (UniProt P11908)	active: 1
RAB2A (UniProt P61019)	inactive: 0
RAB20 (UniProt Q9NX57)	inactive: 0
QTRT1 (UniProt Q9BXR0)	active: 1
PTCD3 (UniProt Q96EY7)	inactive: 0
PSMG1 (UniProt O95456)	inactive: 0
PTAR1 (UniProt Q7Z6K3)	inactive: 0
PRPF38A (UniProt Q8NAV1)	inactive: 0
PTGR1 (UniProt Q14914)	active: 1
PRPF6 (UniProt O94906)	inactive: 0
RBBP6 (UniProt Q7Z6E9)	inactive: 0

As a short view, part of the list above.
Target	dose-dependent thermal stabilisation call
PRPF38A (UniProt Q8NAV1)	inactive: 0
PTGR1 (UniProt Q14914)	active: 1
